Measurements: patent publication US9572862B2, “Methods for promoting lipolysis and oxidation in liver and adipose tissue using catestatin” (The Regents of the University of California, priority 2012, dated 2017)
Some of these results come from one statement about several compounds together. No end group written: not given here.

System: CST-KO mice
Assay: ITT in insulin resistant CST-KO mice with CST, RI-CST or NSC-177941
Type: in vivo
Source text: FIG. 16. […] Figures in parentheses indicate number of animals.

SSMKLSFRARAYGFRGPGPQL [CST]
time after insulin injection at which increase in sensitivity was seen: ≤ 15 min

amino-l372qpGpGrfGyararfslkmss352-carboxyl (SEQ ID NO:27) (LQPGPGRFGYARARFSLKMSS; retro-inverso D-amino acids; Retro and retroinverso peptide) [RI-CST, retro-inverso peptide equivalent of human CST]
time after insulin injection at which increase in sensitivity was seen: ≤ 15 min
